Values quoted from earlier work as cited in US6118050A, “Hydroxyphenylpyruvate dioxygenase gene from arabidopsis and method of screening for inhibitors thereof” (American Cyanamid Company, priority 1997, dated 2000).
At least one compound was matched to its structure with a doubt left.

Tested on: albino psdl mutant
Settings: transferred to MS2 medium supplemented with OHPP or HGA; cited from earlier work

O=C(O)C(=O)Cc1ccc(O)cc1 [OHPP, 4-hydroxyphenylpyruvate]
greening of albino psdl mutant: not
